Results taken from patent US20050042227A1.
These are yes or no findings as the source states them, for the method shown. Some entries that bind do so weakly or less than the wild type. Tags and fused reporters may be left off the sequences shown.

By UniProt entry, the sequences of proteins in these tests, tags left out. Residues count along the entry.
UniProt Q07954, residues 806-1183: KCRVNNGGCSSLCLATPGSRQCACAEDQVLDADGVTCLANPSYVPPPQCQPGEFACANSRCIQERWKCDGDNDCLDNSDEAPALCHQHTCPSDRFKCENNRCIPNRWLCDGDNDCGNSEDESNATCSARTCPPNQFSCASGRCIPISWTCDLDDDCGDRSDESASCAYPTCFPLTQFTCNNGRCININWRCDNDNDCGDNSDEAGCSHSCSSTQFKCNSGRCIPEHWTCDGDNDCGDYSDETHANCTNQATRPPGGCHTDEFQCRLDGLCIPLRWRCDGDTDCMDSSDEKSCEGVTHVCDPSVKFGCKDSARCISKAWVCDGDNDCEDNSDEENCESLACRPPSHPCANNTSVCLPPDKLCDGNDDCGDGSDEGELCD

Target: sLRP2, the entire second ligand-binding domain of human LRP1 (human) (UniProt Q07954)
Test: ligand blot, sLRP2 spotted on membrane, detection with anti-RAP antibody

binding: binds
B1: RAP-IDU fusion (human RAP fused N-terminally to human alpha-L-iduronidase) (protein)
chain: SYSREKNQPKPSPKRESGEEFRMEKLNQLWEKAQRLHLPPVRLAELHADLKIQERDELAWKKLKLDGLDEDGEKEARLIRNLNVILAKYGLDGKKDARQVTSNSLSGTQEDGLDDPRLEKLWHKAKTSGKFSGEELDKLWREFLHHKEKVHEYNVLLETLSRTEEIHENVISPSDLSDIKGSVLHSRHTELKEKLRSINQGLDRLRRVSHQGYSTEAEFEEPRVIDLWDLAQSANLTDKELEAFREELKHFEAKIEKHNHYQKQLEIAHEKLRHAESVGDGERVSRSREKHALLEGRTKELGYTVKKHLQDLSGRISRARAEAETGEAPHLVHVDAARALWPLRRFWRSTGFCPPLPHSQADQYVLSWDQQLNLAYVGAVPHRGIKQVRTHWLLELVTTRGSTGRGLSYNFTHLDGYLDLLRENQLLPGFELMGSASGHFTDFEDKQQVFEWKDLVSSLARRYIGRYGLAHVSKWNFETWNEPDHHDFDNVSMTMQGFLNYYDACSEGLRAASPALRLGGPGDSFHTPPRSPLSWGLLRHCHDGTNFFTGEAGVRLDYISLHRKGARSSISILEQEKVVAQQIRQLFPKFADTPIYNDEADPLVGWSLPQPWRADVTYAAMVVKVIAQHQNLLLANTTSAFPYALLSNDNAFLSYHPHPFAQRTLTARFQVNNTRPPHVQLLRKPVLTAMGLLALLDEEQLWAEVSQAGTVLDSNHTVGVLASAHRPQGPADAWRAAVLIYASDDTRAHPNRSVAVTLRLRGVPPGPGLVYVTRYLDNGLCSPDGEWRRLGRPVFPTAEQFRRMRAAEDPVAAAPRPLPAGGRLTLRPALRLPSLLLVHVCARPEKPPGQVTRLRALPLTQGQLVLVWSDEHVGSKCLWTYEIQFSQDGKAYTPVSRKPSTFNLFVFSPDTGAVSGSYRVRALDYWARPGPFSDPVPYLEVPVPRGPPSPGNP
